Measured values as given in paper PMC6268524.
Results are given in words; binding and its absence hold for the method and conditions named. In cells and extracts the contact can be indirect. For some of these results: A result given as binding can be weak or reduced; the word gives no strength. For some of these results: Where a sequence is shown, tags or fusion partners need not be part of it.

The chains behind the UniProt entries cited, without tags or fusion partners. Where a name states a change or a piece, a line headed by the entry shows the natural chain unless it says otherwise. Residues count along the entry.
UniProt Q13490: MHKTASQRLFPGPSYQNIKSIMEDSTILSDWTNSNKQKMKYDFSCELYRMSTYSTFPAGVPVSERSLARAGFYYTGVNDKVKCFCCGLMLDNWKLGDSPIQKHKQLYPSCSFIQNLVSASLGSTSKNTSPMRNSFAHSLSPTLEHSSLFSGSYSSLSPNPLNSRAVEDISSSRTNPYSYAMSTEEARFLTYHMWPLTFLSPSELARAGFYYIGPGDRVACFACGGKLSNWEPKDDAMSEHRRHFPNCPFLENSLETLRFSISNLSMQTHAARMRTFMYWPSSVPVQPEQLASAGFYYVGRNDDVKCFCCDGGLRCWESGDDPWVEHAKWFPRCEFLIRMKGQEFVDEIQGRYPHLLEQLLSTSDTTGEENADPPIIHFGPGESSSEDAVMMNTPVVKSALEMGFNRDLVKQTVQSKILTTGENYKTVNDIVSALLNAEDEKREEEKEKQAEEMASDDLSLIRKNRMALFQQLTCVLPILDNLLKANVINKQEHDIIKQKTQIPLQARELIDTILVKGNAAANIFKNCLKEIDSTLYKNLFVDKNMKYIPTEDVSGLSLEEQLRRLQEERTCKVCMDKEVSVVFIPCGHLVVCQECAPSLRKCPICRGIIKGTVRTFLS
UniProt Q8NBP7: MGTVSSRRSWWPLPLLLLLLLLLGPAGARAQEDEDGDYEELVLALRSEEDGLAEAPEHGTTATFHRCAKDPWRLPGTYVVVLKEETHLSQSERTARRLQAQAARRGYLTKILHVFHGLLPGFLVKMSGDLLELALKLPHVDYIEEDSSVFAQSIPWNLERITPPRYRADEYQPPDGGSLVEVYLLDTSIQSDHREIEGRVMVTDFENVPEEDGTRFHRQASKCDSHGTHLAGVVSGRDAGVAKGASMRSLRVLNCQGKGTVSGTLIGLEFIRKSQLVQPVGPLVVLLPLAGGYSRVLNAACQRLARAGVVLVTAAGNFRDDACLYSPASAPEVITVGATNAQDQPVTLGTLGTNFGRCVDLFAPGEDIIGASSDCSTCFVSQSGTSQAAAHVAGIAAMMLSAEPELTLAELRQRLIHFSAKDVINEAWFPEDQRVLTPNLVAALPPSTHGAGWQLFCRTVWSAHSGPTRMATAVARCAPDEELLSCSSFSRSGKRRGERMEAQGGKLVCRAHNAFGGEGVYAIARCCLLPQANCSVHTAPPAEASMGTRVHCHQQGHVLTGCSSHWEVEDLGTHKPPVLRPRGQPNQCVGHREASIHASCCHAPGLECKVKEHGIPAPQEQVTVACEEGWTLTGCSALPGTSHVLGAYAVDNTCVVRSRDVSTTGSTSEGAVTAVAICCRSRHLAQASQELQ
UniProt Q9NYU2, residues 43-1555: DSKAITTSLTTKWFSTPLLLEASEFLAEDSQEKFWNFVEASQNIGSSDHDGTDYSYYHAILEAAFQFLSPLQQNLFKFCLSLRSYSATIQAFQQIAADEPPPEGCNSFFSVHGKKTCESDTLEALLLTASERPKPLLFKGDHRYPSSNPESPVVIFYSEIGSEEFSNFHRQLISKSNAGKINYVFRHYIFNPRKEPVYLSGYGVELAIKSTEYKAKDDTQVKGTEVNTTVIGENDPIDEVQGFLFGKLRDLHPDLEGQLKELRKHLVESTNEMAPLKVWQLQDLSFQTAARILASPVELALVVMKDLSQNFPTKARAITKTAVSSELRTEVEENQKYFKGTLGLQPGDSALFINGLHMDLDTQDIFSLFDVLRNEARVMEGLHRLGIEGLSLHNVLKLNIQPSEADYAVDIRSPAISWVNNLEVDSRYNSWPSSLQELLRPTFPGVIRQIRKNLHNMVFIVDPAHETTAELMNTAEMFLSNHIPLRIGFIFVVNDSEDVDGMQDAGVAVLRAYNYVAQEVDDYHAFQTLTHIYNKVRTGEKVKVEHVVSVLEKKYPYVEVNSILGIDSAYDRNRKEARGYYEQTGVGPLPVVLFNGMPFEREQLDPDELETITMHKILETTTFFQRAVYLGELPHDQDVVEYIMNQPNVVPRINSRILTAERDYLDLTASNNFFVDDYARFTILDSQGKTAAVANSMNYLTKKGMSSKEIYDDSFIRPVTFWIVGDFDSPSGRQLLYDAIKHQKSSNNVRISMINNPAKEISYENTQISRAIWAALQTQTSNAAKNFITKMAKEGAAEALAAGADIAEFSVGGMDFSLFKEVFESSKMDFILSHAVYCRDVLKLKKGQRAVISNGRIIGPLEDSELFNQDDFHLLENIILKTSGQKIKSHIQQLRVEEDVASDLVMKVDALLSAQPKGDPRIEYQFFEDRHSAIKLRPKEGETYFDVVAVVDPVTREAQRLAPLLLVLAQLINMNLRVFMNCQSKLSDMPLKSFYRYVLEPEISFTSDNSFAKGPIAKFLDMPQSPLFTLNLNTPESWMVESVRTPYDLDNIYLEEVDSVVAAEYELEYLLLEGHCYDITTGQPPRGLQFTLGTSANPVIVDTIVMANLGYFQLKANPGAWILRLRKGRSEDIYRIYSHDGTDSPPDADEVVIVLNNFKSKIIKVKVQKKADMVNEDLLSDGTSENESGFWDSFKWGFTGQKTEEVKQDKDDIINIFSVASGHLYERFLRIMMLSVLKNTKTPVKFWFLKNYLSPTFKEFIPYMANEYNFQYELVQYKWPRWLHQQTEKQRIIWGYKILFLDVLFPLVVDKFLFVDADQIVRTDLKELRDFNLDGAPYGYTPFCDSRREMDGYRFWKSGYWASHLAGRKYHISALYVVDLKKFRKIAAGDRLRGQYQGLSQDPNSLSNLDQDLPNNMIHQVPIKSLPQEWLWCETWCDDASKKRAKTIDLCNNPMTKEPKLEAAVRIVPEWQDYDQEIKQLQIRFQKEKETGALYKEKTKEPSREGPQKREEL

Key:
myc-tagged c-IAP1 = myc-tagged c-IAP1 (UniProt Q13490); assay: co-IP; FLAG-tagged wild-type PCSK9 co-transfected with a myc-tagged partner into T-Rex-293 cells; after 24 h lysates immunoprecipitated with anti-myc antibody, blotted with anti-PCSK9
myc-tagged TRAF2 = target: T1, myc-tagged TRAF2 (UniProt Q12933); assay: as above
T1 sequence: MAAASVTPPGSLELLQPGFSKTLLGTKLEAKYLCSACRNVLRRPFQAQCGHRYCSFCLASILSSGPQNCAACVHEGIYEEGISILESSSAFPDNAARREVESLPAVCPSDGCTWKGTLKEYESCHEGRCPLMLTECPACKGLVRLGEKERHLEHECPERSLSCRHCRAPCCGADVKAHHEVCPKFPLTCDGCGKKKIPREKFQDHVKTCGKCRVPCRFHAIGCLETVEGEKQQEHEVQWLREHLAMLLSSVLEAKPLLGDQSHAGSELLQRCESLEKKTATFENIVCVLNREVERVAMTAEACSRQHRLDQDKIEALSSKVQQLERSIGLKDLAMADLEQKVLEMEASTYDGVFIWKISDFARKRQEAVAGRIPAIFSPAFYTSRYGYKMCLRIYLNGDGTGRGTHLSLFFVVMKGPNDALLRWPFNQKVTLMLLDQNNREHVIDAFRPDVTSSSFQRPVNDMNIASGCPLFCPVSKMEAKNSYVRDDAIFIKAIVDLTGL

[1] = target: FLAG-tagged wild-type PCSK9 (proprotein convertase subtilisin/kexin type 9) (human) (UniProt Q8NBP7); assay: co-IP; anti-FLAG IP from cellular extracts of T-Rex-293 lines stably overexpressing FLAG-tagged PCSK9 (wild type or ADH mutants), Western blots for endogenous partners with commercial antibodies

## FLAG-tagged wild-type PCSK9 (proprotein convertase subtilisin/kexin type 9) (from UniProt Q8NBP7)
myc-tagged c-IAP1
  binding: binds
myc-tagged TRAF2
  binding: no binding

## UDP-glucose glycoprotein glucosyltransferase 1 (from UniProt Q9NYU2 43-1555)
[1]
  binding: binds

B1: protein disulfide isomerase family A, member 4 (protein, UniProt P13667 21-645)
chain: VAGAEGPDEDSSNRENAIEDEEEEEEEDDDEEEDDLEVKEENGVLVLNDANFDNFVADKDTVLLEFYAPWCGHCKQFAPEYEKIANILKDKDPPIPVAKIDATSASVLASRFDVSGYPTIKILKKGQAVDYEGSRTQEEIVAKVREVSQPDWTPPPEVTLVLTKENFDEVVNDADIILVEFYAPWCGHCKKLAPEYEKAAKELSKRSPPIPLAKVDATAETDLAKRFDVSGYPTLKIFRKGRPYDYNGPREKYGIVDYMIEQSGPPSKEILTLKQVQEFLKDGDDVIIIGVFKGESDPAYQQYQDAANNLREDYKFHHTFSTEIAKFLKVSQGQLVVMQPEKFQSKYEPRSHMMDVQGSTQDSAIKDFVLKYALPLVGHRKVSNDAKRYTRRPLVVVYYSVDFSFDYRAATQFWRSKVLEVAKDFPEYTFAIADEEDYAGEVKDLGLSESGEDVNAAILDESGKKFAMEPEEFDSDTLREFVTAFKKGKLKPVIKSQPVPKNNKGPVKVVVGKTFDSIVMDPKKDVLIEFYAPWCGHCKQLEPVYNSLAKKYKGQKGLVIAKMDATANDVPSDRYKVEGFPTIYFAPSGDKKNPVKFEGGDRDLEHLSKFIEEHATKLSRTKEEL
[1]
  binding: binds
